Data from US20210069176A1, “Treating Autoimmune Disorders with Chloroquine and/or Hydroxychloroquine” (Attillaps Holdings, priority 2018, published 2021).
At least one structure is not confirmed: it was looked up by name or label, or the drawing left a doubt.

Test system: Demodex mites
Assay: in vitro Demodex survival time assay
Settings: FIG. 3
Procedure: FIG. 4 summarizes the activity of 10% chloroquine in water relative to a water control on activity against Demodex mites in an in vitro assay, with an LT50 of 31.6 hours for chloroquine compared to 44.8 hours for the water control, illustrating the inactivation effect of chloroquine on Demodex.
Example 4: In vitro efficacy and mite lifetimes: Relative efficacy of various formulations are evaluated with a demodex survival time experiments. FIG. 3 tabulates demodex survival time, expressed in terms of LT50 (time at which 50% of demodex mites are killed) and/or average minutes to death for various active agents.

With `C[C@H]1c2cccc(O)c2C(=O)C2=C(O)[C@]3(O)C(=O)C(C(N)=O)=C(O)[C@@H](N(C)C)[C@@H]3[C@@H](O)[C@@H]21` [doxycycline] as the compound, how does the “activity against Demodex mites” value read?
The value was “does have activity against the mite”.
